Inconclusive results, whose numbers are uncertain, are shown with a selection of clear calls. For some of these results: Potencies beside an inconclusive call are fits to weak or partial responses and may not hold up. Calls of active or inactive are those of the source. Calls follow the shape of the dose curve; as a rule, active = well fitted curve in the direction sought with a large enough effect; inconclusive = small, poorly fitted or top-dose-only effect, or another doubt; inactive = no such curve, though single readings can be large; an effect the other way counts as inactive or inconclusive.
Legend:
[1] = Quantitative High-Throughput drug screen in 47 multiple myeloma cell lines against the NCATS MIPE library collection: KMS20_JCRB cell viability assay (AID 1918973); conditions: CellTiter-Glo ATP, 48 h; viability (% of DMSO): at 45.8 µM (top of the series); also: nearly all actives have a fitted effect of over 45% in size; also: potency is read from the fitted curve at half-maximal effect;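 as to viability (% of DMSO): 100% = DMSO only wells and 0% = media only wells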
Method in brief: (§1)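 Relative luminescence from CellTiter-Glo served as the viability signal, referenced to DMSO-treated (100%) and cell-free medium (0%) controls. Treatment lasted 48 hours at 37C with 500 cells per well.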

[2] = Quantitative High-Throughput drug screen in 47 multiple myeloma cell lines against the NCATS MIPE library collection: KMS21BM_JCRB cell viability assay (AID 1918974); conditions: ATP luminescence, 48 h; viability: at 45.8 µM (top of the series) unless noted; also: potency is read from the fitted curve at half-maximal effect
Method in brief: as §1

[3] = Quantitative High-Throughput drug screen in 47 multiple myeloma cell lines against the NCATS MIPE library collection: KMS26_JCRB cell viability assay (AID 1918975); conditions: KMS26 myeloma cells viability, CellTiter-Glo ATP, 48 h; viability (% of DMSO): at 45.8 µM (top of the series); also: nearly all actives have a fitted effect of over 45% in size; also: potency is read from the fitted curve at half-maximal effect;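 as to viability (% of DMSO): 100% = DMSO-treated wells and 0% = wells with media only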
Method in brief: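 qHTS of the MIPE 4.0 collection: 500 myeloma cells/well, 48 h drug exposure at 37C in 5% CO2, then CellTiter-Glo for 5 min at room temperature before luminescence reading.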

[4] = Quantitative High-Throughput drug screen in 47 multiple myeloma cell lines against the NCATS MIPE library collection: MOLP8_DSMZ cell viability assay (AID 1918977); conditions: MOLP8 myeloma viability, CellTiter-Glo ATP luminescence, 48 h; viability (% of control): at 45.8 µM (top of the series); also: nearly all actives have a fitted effect of over 45% in size; also: potency is read from the fitted curve at half-maximal effect;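 as to viability (% of control): 100% = DMSO-only wells and 0% = media-only wells without cells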
Method in brief: (§2)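 Inhibition of viability over 48 h was scored by ATP content (CellTiter-Glo) in 500-cell wells. Zero and full viability were defined by media-only and DMSO-only wells.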

[5] = Quantitative High-Throughput drug screen in 47 multiple myeloma cell lines against the NCATS MIPE library collection: NCIH929_DSMZ cell viability assay (AID 1918978); also: potency is read from the fitted curve at half-maximal effect; nearly all actives have a fitted effect of over 35% in size
Method in brief: as §2

[6] = Quantitative High-Throughput drug screen in 47 multiple myeloma cell lines against the NCATS MIPE library collection: MM1R_ATCC cell viability assay (AID 1918981); also: nearly all actives have a fitted effect of over 35% in size; also: potency is read from the fitted curve at half-maximal effect
Method in brief: as §2

[7] = Quantitative High-Throughput drug screen in 47 multiple myeloma cell lines against the NCATS MIPE library collection: LP1_DSMZ cell viability assay (AID 1918982); conditions: LP1 myeloma viability, CellTiter-Glo ATP luminescence, 48 h; viability (% of control): at 45.8 µM (top of the series); also: nearly all actives have a fitted effect of over 35% in size; also: potency is read from the fitted curve at half-maximal effect
Method in brief: as §2

[8] = Quantitative High-Throughput drug screen in 47 multiple myeloma cell lines against the NCATS MIPE library collection: KMS28PE_JCRB cell viability assay (AID 1918983); also: nearly all actives have a fitted effect of over 35% in size; also: potency is read from the fitted curve at half-maximal effect
Method in brief: as §2

[9] = Quantitative High-Throughput drug screen in 47 multiple myeloma cell lines against the NCATS MIPE library collection: L363_DSMZ cell viability assay (AID 1918984); conditions: L363 myeloma viability, CellTiter-Glo ATP luminescence, 48 h; viability (% of control): at 45.8 µM (top of the series); also: nearly all actives have a fitted effect of over 40% in size; also: potency is read from the fitted curve at half-maximal effect
Method in brief: as §2

[10] = Quantitative High-Throughput drug screen in 47 multiple myeloma cell lines against the NCATS MIPE library collection: KMS34_JCRB cell viability assay (AID 1918985); conditions: KMS34 myeloma viability, CellTiter-Glo ATP luminescence, 48 h; viability, percent of control: at 45.8 µM (top of the series); also: nearly all actives have a fitted effect of over 40% in size; also: potency is read from the fitted curve at half-maximal effect;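 as to viability, percent of control: 100% = DMSO-only wells and 0% = media-only wells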
Method in brief: as §2

[11] = Quantitative High-Throughput drug screen in 47 multiple myeloma cell lines against the NCATS MIPE library collection: OCIMY7_PLB cell viability assay (AID 1918987); conditions: OCI-MY7 myeloma viability, CellTiter-Glo ATP, 48 h; viability (% of DMSO): at 45.8 µM (top of the series); also: nearly all actives have a fitted effect of over 65% in size; also: potency is read from the fitted curve at half-maximal effect
Method in brief: as §2

[12] = Quantitative High-Throughput drug screen in 47 multiple myeloma cell lines against the NCATS MIPE library collection: SKMM1_PLB cell viability assay (AID 1919863); conditions: SKMM1 myeloma viability, CellTiter-Glo ATP, 48 h; viability: active compounds read low; also: nearly all actives have a fitted effect of over 35% in size; also: potency is read from the fitted curve at half-maximal effect
Method in brief: as §2

[13] = Quantitative High-Throughput drug screen in 47 multiple myeloma cell lines against the NCATS MIPE library collection: U266_ATCC cell viability assay (AID 1919864); conditions: U266 myeloma viability, CellTiter-Glo ATP luminescence, 48 h; viability (% of DMSO control): at 45.8 µM (top of the series); also: nearly all actives have a fitted effect of over 35% in size; also: potency is read from the fitted curve at half-maximal effect;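 as to viability (% of DMSO control): 0% = media-only wells without cells and 100% = DMSO-only wells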
Method in brief: as §2

[14] = Quantitative High-Throughput drug screen in 47 multiple myeloma cell lines against the NCATS MIPE library collection: XG6_PLB cell viability assay (AID 1919865); conditions: XG6 myeloma viability, CellTiter-Glo ATP luminescence, 48 h; viability (% of control): at 45.8 µM (top of the series); also: nearly all actives have a fitted effect of over 40% in size; also: potency is read from the fitted curve at half-maximal effect;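 as to viability (% of control): 100% = DMSO-only wells and 0% = media-only wells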
Method in brief: as §2

[15] = Quantitative High-Throughput drug screen in 47 multiple myeloma cell lines against the NCATS MIPE library collection: XG1_PLB cell viability assay (AID 1919866); conditions: CellTiter-Glo ATP, 48 h; viability: at 45.8 µM (top of the series); also: nearly all actives have a fitted effect of over 35% in size; also: potency is read from the fitted curve at half-maximal effect
Method in brief: as §2

[16] = Quantitative High-Throughput drug screen in 47 multiple myeloma cell lines against the NCATS MIPE library collection: MM1S_ATCC cell viability assay (AID 1918980); also: nearly all actives have a fitted effect of over 45% in size; also: potency is read from the fitted curve at half-maximal effect;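 as to viability (% of control): 100% = wells with DMSO only and 0% = wells with media only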
Method in brief: as §2

[17] = Quantitative High-Throughput drug screen in 47 multiple myeloma cell lines against the NCATS MIPE library collection: OCIMY5_PLB cell viability assay (AID 1918988); conditions: OCI-MY5 myeloma viability, ATP luminescence, 48 h; viability, % of control: at 45.8 µM (top of the series); also: nearly all actives have a fitted effect of over 65% in size; also: potency is read from the fitted curve at half-maximal effect;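 as to viability, % of control: 100% = DMSO-treated wells and 0% = wells with media alone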
Method in brief: as §2

[18] = Quantitative High-Throughput drug screen in 47 multiple myeloma cell lines against the NCATS MIPE library collection: OPM1_PLB cell viability assay (AID 1918989); also: nearly all actives have a fitted effect of over 40% in size; also: potency is read from the fitted curve at half-maximal effect;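 as to viability (% of control): 100% = DMSO-only wells and 0% = media-only wells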
Method in brief: as §2

[19] = Quantitative High-Throughput drug screen in 47 multiple myeloma cell lines against the NCATS MIPE library collection: OCIMY1_PLB cell viability assay (AID 1918979); conditions: OCI-MY1 myeloma viability, CellTiter-Glo ATP, 48 h; viability: at 45.8 µM (top of the series) unless noted
Method in brief: as §2

O=C1CN2Cc3c(ccc(Cl)c3Cl)N=C2N1
active: Potency [8] 23.5 µM
inconclusive: Potency [2] 0.833 µM [rising, full curve] | Potency [3] 26.4 µM [cytotoxic, partial curve, poor fit] | Potency [4] 14.8 µM [cytotoxic, partial curve, poor fit] | Potency [5] 23.5 µM [cytotoxic, single point] | Potency [6] 33.2 µM [cytotoxic, single point] | Potency [7] 14.8 µM [cytotoxic, partial curve] | Potency [10] 23.5 µM [cytotoxic, partial curve, poor fit] | Potency [11] 37.2 µM [cytotoxic, single point] | Potency [12] 37.2 µM [cytotoxic, single point] | Potency [13] 23.5 µM [cytotoxic, single point] | Potency [14] 20.9 µM [cytotoxic, partial curve, poor fit] | Potency [15] 23.5 µM [cytotoxic, single point]
inactive: Potency [1] | Potency [9]

CC(=O)SC[C@@H](C)C(=O)N1CCC[C@H]1C(=O)N[C@@H](Cc1ccccc1)C(=O)O
inactive: Potency [4] | Potency [6] | Potency [11] | Potency [18] | viability [12] 151%
inconclusive: Potency [1] 0.148 µM [cytotoxic, full curve, poor fit] | Potency [2] 11.8 µM [rising, partial curve, poor fit] | Potency [3] 1.32 µM [cytotoxic, full curve, poor fit] | Potency [16] 37.2 µM [cytotoxic, partial curve, poor fit] | Potency [8] 2.09 µM [cytotoxic, partial curve, poor fit] | Potency [9] 0.935 µM [cytotoxic, full curve, poor fit] | Potency [10] 23.5 µM [cytotoxic, partial curve, poor fit] | Potency [17] 4.69 µM [cytotoxic, full curve, poor fit] | Potency [13] 18.7 µM [cytotoxic, partial curve, poor fit] | Potency [14] 0.001 µM

NC(=O)N1CCC(CC(=O)N2CCC([C@H]3c4ncc(Br)cc4CCc4cc(Cl)cc(Br)c43)CC2)CC1
inconclusive: Potency [1] 29.6 µM [cytotoxic, single point] | Potency [4] 16.6 µM [cytotoxic, partial curve, poor fit] | Potency [5] 16.6 µM [cytotoxic, partial curve] | Potency [7] 13.2 µM [cytotoxic, partial curve, poor fit]
active: Potency [2] 13.2 µM | Potency [3] 20.9 µM | Potency [9] 4.18 µM | Potency [11] 0.743 µM | Potency [13] 18.7 µM

Cc1ccc(NC(=O)c2ccc(CN3CCN(C)CC3)cc2)cc1Nc1nc(-c2cccnc2)cs1
inconclusive: Potency [1] 4.69 µM [cytotoxic, partial curve, poor fit] | Potency [2] 29.6 µM [cytotoxic, partial curve, poor fit] | Potency [3] 37.2 µM [cytotoxic, partial curve, poor fit] | Potency [4] 37.2 µM [cytotoxic, partial curve, poor fit] | Potency [16] 26.4 µM [cytotoxic, single point] | Potency [7] 20.9 µM [cytotoxic, partial curve, poor fit] | Potency [10] 20.9 µM [cytotoxic, partial curve, poor fit]
active: Potency [5] 23.5 µM | Potency [14] 7.43 µM

CN(C)CCC=C1c2ccccc2C=Cc2ccccc21
inconclusive: Potency [2] 26.4 µM [rising, partial curve, poor fit] | Potency [4] 10.5 µM [cytotoxic, partial curve, poor fit] | Potency [16] 20.9 µM [cytotoxic, single point] | Potency [7] 4.69 µM [cytotoxic, full curve, poor fit] | Potency [12] 9.35 µM [cytotoxic, partial curve, poor fit] | Potency [14] 33.2 µM [cytotoxic, single point] | Potency [15] 37.2 µM [cytotoxic, single point]
active: Potency [1] 14.8 µM | Potency [3] 6.62 µM | Potency [6] 18.7 µM
inactive: Potency [9] | Potency [10]

COc1nc(C)cnc1NS(=O)(=O)c1cccnc1-c1ccc(-c2nnco2)cc1
inactive: Potency [16] | Potency [6] | Potency [7] | Potency [9] | Potency [13] | Potency [15]
inconclusive: Potency [1] 4.18 µM [cytotoxic, partial curve, poor fit] | Potency [2] 29.6 µM [rising, partial curve] | Potency [3] 23.5 µM [cytotoxic, single point] | Potency [4] 1.48 µM [cytotoxic, full curve, poor fit] | Potency [8] 0.296 µM [cytotoxic, partial curve, poor fit] | Potency [10] 0.0066 µM [cytotoxic, full curve, poor fit] | Potency [11] 0.0053 µM [rising, full curve, poor fit] | Potency [17] 20.9 µM [cytotoxic, partial curve, poor fit] | Potency [18] 13.2 µM [cytotoxic, partial curve, poor fit]

Cc1ccc(-c2cc(C(F)(F)F)nn2-c2ccc(S(N)(=O)=O)cc2)cc1
inconclusive: Potency [1] 33.2 µM [cytotoxic, partial curve, poor fit] | Potency [2] 33.2 µM [rising, partial curve] | Potency [3] 33.2 µM [cytotoxic, single point] | Potency [4] 41.8 µM [cytotoxic, partial curve, poor fit] | Potency [5] 33.2 µM [cytotoxic, single point] | Potency [7] 11.8 µM [cytotoxic, partial curve, poor fit] | Potency [8] 0.0372 µM [cytotoxic, full curve, poor fit] | Potency [18] 0.0264 µM [rising, full curve, poor fit] | Potency [12] 1.18 µM [cytotoxic, partial curve, poor fit] | Potency [13] 8.33 µM [cytotoxic, full curve, poor fit] | viability (% of control) [14] 68.9% [cytotoxic] | Potency [15] 33.2 µM [cytotoxic, single point]
active: Potency [16] 20.9 µM | Potency [11] 20.9 µM | Potency [17] 20.9 µM
inactive: Potency [9]

NC(=O)C1CCCc2c1[nH]c1ccc(Cl)cc21 (configuration not stated)
inconclusive: Potency [1] 4.18 µM [cytotoxic, full curve, poor fit] | Potency [2] 0.526 µM [cytotoxic, full curve, poor fit] | Potency [3] 0.59 µM [cytotoxic, full curve, poor fit] | Potency [4] 5.26 µM [cytotoxic, partial curve, poor fit] | Potency [16] 0.0053 µM [cytotoxic, full curve, poor fit] | Potency [9] 5.9 µM [cytotoxic, partial curve, poor fit] | Potency [10] 0.0037 µM [rising, full curve, poor fit] | Potency [11] 5.26 µM [cytotoxic, partial curve, poor fit] | Potency [17] 0.935 µM [cytotoxic, full curve, poor fit]
active: Potency [6] 14.8 µM | Potency [15] 16.6 µM
inactive: Potency [19] | Potency [7]

CCc1c(O)cc(O)c(C(=O)c2ccc(OCCN3CCOCC3)c(OC)c2)c1CC(=O)N(CCOC)CCOC
active: Potency [1] 0.526 µM | Potency [3] 0.833 µM | Potency [4] 0.662 µM | Potency [6] 1.18 µM | Potency [8] 1.18 µM | Potency [12] 1.32 µM
inconclusive: Potency [2] 13.2 µM [rising, partial curve, poor fit] | Potency [7] 1.32 µM [cytotoxic, full curve] | Potency [9] 0.187 µM [cytotoxic, full curve, poor fit]

COc1ccc(-c2ccc3cc(C(=O)O)ccc3c2)cc1C12CC3CC(CC(C3)C1)C2
inactive: Potency [3] | Potency [8] | Potency [10] | Potency [17]
inconclusive: Potency [1] 0.059 µM [rising, full curve, poor fit] | Potency [2] 0.0083 µM [rising, full curve] | Potency [4] 8.33 µM [cytotoxic, full curve] | Potency [7] 9.35 µM [rising, single point] | Potency [9] 0.0033 µM [cytotoxic, full curve, poor fit] | Potency [11] 0.0074 µM [rising, full curve, poor fit] | Potency [18] 0.0105 µM [rising, full curve] | Potency [14] 0.0235 µM [cytotoxic, full curve, poor fit]
active: Potency [16] 5.26 µM | Potency [13] 5.26 µM

From PubChem BioAssay (NCATS)
